According to patent US20200197532A1:
Results are given in words; binding and its absence hold for the method and conditions named. Some results given as binding are weak or reduced against the parent protein; the word gives no strength.

Amino acid sequences for entries named in this document (tags omitted). Residues count along the entry.
UniProt P28481, residues 201-1214: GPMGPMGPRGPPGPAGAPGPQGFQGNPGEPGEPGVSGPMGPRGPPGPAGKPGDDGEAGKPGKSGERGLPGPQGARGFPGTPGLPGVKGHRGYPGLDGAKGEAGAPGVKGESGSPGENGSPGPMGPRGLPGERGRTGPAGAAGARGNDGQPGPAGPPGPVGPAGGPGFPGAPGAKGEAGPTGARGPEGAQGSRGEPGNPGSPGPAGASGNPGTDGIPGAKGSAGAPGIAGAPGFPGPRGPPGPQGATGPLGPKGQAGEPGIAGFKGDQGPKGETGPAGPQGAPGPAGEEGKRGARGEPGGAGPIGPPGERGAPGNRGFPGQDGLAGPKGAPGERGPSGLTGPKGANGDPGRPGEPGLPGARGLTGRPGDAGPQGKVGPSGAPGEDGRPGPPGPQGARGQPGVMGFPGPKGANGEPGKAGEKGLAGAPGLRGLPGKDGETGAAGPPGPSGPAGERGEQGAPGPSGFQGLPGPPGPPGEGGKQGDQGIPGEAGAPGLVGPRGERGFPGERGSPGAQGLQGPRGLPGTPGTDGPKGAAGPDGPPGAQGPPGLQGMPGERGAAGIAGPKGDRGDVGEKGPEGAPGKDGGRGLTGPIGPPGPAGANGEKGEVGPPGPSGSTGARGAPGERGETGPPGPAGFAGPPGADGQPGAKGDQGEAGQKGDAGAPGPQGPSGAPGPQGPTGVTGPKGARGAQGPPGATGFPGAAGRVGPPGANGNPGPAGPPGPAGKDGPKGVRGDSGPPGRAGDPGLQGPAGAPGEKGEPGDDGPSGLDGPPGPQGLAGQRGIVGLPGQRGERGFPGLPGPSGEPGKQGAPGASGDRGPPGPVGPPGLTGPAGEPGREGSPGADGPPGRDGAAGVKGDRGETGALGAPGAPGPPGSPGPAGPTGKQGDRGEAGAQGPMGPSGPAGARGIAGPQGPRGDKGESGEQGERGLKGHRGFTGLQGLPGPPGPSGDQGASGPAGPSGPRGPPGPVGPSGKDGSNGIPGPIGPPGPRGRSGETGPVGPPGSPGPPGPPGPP
UniProt P02458, residues 201-1214: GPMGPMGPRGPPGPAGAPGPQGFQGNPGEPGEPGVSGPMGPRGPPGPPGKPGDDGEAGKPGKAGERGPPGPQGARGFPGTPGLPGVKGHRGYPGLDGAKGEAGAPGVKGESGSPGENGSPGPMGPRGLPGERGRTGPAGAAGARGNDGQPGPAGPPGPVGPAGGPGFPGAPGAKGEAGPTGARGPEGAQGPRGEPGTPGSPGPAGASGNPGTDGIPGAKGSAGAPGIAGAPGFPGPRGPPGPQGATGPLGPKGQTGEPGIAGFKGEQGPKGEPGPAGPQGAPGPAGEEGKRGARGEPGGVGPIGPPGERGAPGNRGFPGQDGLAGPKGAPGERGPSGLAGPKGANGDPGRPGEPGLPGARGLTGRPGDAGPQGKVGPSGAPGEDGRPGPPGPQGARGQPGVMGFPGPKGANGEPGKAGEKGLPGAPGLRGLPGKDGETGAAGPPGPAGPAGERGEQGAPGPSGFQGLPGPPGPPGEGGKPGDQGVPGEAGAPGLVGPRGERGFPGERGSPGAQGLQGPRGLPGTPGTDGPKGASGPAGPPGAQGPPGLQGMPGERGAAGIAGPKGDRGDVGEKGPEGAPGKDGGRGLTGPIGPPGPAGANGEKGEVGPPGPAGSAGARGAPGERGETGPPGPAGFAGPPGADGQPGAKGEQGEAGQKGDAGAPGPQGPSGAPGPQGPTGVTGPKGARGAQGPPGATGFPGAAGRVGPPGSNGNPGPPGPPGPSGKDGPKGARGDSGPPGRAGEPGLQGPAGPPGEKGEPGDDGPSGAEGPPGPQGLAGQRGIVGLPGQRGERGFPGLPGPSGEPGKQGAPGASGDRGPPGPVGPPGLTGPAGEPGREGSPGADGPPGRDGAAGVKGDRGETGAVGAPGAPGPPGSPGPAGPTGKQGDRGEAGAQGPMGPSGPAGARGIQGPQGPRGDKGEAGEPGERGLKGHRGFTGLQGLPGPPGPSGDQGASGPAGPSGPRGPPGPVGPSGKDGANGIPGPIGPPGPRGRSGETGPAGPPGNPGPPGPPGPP
UniProt P02459, residues 201-1214: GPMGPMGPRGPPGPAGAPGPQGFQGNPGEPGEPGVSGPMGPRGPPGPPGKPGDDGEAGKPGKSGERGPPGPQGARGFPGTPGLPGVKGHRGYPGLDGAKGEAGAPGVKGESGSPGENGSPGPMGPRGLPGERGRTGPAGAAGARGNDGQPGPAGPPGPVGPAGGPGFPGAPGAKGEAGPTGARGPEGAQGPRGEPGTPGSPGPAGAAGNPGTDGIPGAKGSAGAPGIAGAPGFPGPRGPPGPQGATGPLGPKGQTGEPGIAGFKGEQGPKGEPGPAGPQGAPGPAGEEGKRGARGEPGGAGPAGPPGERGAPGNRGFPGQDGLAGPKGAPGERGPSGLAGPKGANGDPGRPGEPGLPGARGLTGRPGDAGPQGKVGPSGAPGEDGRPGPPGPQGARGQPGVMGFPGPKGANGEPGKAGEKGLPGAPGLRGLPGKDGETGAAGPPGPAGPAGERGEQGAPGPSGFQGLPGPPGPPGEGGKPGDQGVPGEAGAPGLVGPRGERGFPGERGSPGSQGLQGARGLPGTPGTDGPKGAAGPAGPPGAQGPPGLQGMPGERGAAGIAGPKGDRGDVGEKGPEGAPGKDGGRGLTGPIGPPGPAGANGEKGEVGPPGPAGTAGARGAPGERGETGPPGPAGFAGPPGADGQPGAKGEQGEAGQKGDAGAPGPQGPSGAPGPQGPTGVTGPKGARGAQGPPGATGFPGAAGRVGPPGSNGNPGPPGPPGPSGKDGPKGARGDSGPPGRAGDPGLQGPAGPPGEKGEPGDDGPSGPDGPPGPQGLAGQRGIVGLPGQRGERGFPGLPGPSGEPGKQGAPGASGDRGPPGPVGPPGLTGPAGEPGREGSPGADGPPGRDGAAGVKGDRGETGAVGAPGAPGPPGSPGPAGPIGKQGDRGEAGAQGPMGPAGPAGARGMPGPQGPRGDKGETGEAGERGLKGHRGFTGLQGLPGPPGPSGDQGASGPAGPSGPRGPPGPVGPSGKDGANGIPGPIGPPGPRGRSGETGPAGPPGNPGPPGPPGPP

Assays:
[1] = biological target: Mouse type II collagen (mouse) (UniProt P28481); assay: in vivo optical imaging, ROI fluorescence of mouse knee
[2] = biological target: Human type II collagen (human) (UniProt P02458); assay: ELISA on type II collagen
[3] = biological target: Mouse type II collagen (mouse) (UniProt P28481); assay: ELISA on type II collagen
[4] = biological target: Native bovine type II collagen (bovine) (UniProt P02459); assay: ELISA on type II collagen
[5] = biological target: Mouse type II collagen (mouse) (UniProt P28481); assay: in vivo optical imaging of fluorescent antibody in mechanically loaded mouse knee

binding [1]: binds
binding [2]: binds
binding [3]: binds
binding [4]: binds
binding [5]: binds
B1: E4 monoclonal antibody to type II collagen (MabCII, clone E4-D4) (antibody, mouse IgG2a, kappa, V domains shown)
VH: EVQLVESGGGLVKPGGSLKVSCEASGFTFSDYGMHWVRQAPEKGLEWVAYISSVSSTIYYADTVEGRFTISRDNVRNTLFLQMTSLRSEDTAMYYCAREGWLPLFAFWGQGTLVTVSA
VL: DIVLTQSHKFMSTSVGDRVSITCKASQDVSITVAWYQQKPGQSPKLLIYSASYRNPGVPDRFTGSGSGTDFNFTISTVQAEDLAVYYCQQYYIIPWTFGGGTKLEFKR
